Assay results taken from article PMC9963887 (Pharmaceuticals, 2023).

Key:
[1] = general procedure: Fmoc solid-phase peptide synthesis; Rink amide MBHA LL; HBTU/DIPEA; PyBOP for (R)-NODA-GA(tBu)3; settings: whole synthesis
[2] = general procedure: Fmoc solid-phase peptide synthesis; Fmoc-Ile-Wang resin LL; HBTU/DIPEA; PyBOP for (R)-NODA-GA(tBu)3; settings: whole synthesis
[3] = general procedure: Fmoc solid-phase peptide synthesis; Fmoc-Asn(Trt)-2-Cl-Trt resin; HBTU/DIPEA; PyBOP for (R)-NODA-GA(tBu)3; settings: whole synthesis, scale 44 µmol
[4] = general procedure: Fmoc solid-phase peptide synthesis; Fmoc-Thr(tBu) Wang resin; HBTU/DIPEA; PyBOP for (R)-NODA-GA(tBu)3; settings: whole synthesis, scale 30.3 µmol
[5] = general procedure: Fmoc solid-phase peptide synthesis; Fmoc-Thr(tBu)-Wang; HBTU/DIPEA; PyBOP for (R)-NODA-GA(tBu)3; settings: whole synthesis, scale 32.5 µmol

“Phe-Pro-Met-Phe-Asn-His-Trp-Glu-Gln-Trp-Pro-Pro-PEG5-Lys(NODA-GA)-NH2” showed an isolated yield ([1]; scale 36 µmol) of 32%.
“Gln-Arg-His-Lys-Pro-Arg-Glu-PEG5-Lys(NODA-GA)-NH2” showed an isolated yield ([1]; scale 27 µmol) of 50%.
“Trp-Ser-Gly-Glu-Asn-Gly-Pro-Gly-Phe-Tyr-Asp-Tyr-Glu-Ala-PEG5-Lys(NODA-GA)-NH2” showed an isolated yield ([1]; scale 36 µmol) of 54%.
Work on “Asn-c[Cys-Val-Val-Gly-Tyr-Ile-Gly-Glu-Arg-Cys]-Gln-PEG5-Lys(NODA-GA)-NH2” yielded an isolated yield ([1]; scale 27 µmol) of 10%.
With “NODA-GA-PEG5-Tyr-His-Trp-Tyr-Gly-Tyr-Thr-Pro-Gln-Asn-Val-Ile” the isolated yield [2] was 50%.
For “Tyr-c[Cys-Leu-His-Aps-Gly-Val-Cys-Met-Tyr-Ile-Glu-Ala-Leu-Asp-Lys-Tyr-Ala-Cys]-Asn-PEG5-Lys(NODA-GA)-NH2”, the isolated yield ([1]; scale 27 µmol) was 5%.
“NODA-GA-PEG5-His-Thr-Ser-Asp-Gln-Thr-Asn” gave an isolated yield [3] of 21%.
With “Glu-c[Cys-Pro-Leu-Ser-His-Asp-Gly-Tyr-Cys-Leu-His-Asp-Gly-Val-Cys]-Met-PEG5-Lys(NODA-GA)-NH2” the isolated yield [1] was 22%.
Substance “NODA-GA-PEG5-Ser-Tyr-Pro-Ile-Pro-Asp-Thr” has an isolated yield [4] of 59%.
In the case of NODA-GA-PEG5-Leu-Ala-Arg-Leu-Leu-Thr, the isolated yield [5] is reported as 74%.
Work on “Asn-Arg-Pro-Asp-Ser-Ala-Gln-Phe-Trp-Leu-His-His-PEG5-Lys(NODA-GA)-NH2” yielded an isolated yield ([1]; scale 36 µmol) of 49%.
